Reference: patent US12036241B2, “Compositions and methods for immune cell modulation in adoptive immunotherapies” (Fate Therapeutics, Inc., priority 2017, dated 2024)
At least one structure is not confirmed: it was looked up by name or label, or the drawing left a doubt.

Test system: irradiated K562 cells expressing CD19 and mKate2
Assay: Target cell killing by compound-treated CAR-T cells (IncuCyte)
Type: cell-based, human
Conditions: earlier time points, 24 to 65 hours; FIG. 4A

## OCCn1cc(-c2ccc3c(c2)CC/C3=N\O)c(-c2ccncc2)n1 [Compound 22, GDC-0879]
  kinetics of target cell killing compared to vehicle: slower than for vehicle
